Test results: PMC10514202
No constants are given. Whether binding was seen depends on the method and setting. Binding seen in cells or lysates may run through a third protein. Some results given as binding are weak or reduced against the parent protein; the word gives no strength. Sequences can lack the tags named with a protein.

Key:
[1] = biological target: T1, TNFR-Wengen, Flag-tagged (TNFR-wgn-Flag) (Drosophila melanogaster) (UniProt Q9VWS4); assay: proximity ligation; in situ PLA (Duolink In Situ Red, Mouse/Rabbit) on fixed tracheal dorsal trunks of L3 larvae btlGal4>btl-GFP; wgn-flag, primary antibodies against GFP and FLAG; PLA spots counted per 400 μm^2 region
T1 sequence: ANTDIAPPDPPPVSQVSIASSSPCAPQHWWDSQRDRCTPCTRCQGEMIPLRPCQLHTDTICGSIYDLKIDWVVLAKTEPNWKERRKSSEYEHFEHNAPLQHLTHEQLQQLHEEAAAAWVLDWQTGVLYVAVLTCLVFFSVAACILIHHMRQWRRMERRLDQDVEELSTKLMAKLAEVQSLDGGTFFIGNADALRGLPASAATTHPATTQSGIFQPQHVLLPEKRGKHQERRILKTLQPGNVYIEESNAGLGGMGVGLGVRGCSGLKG

[2] = biological target: T1, TNFR-Wengen, Flag-tagged (TNFR-wgn-Flag) (Drosophila melanogaster); assay: co-IP; extracts of third-instar larval salivary glands co-expressing TNFR-wgn-Flag and FGFR-btl-GFP or FGFR-λbtl, lysed in RIPA buffer (50 mM Tris-HCl pH8, 150 mM NaCl, 0.1% SDS, 0.5% sodium deoxycholate, 1% Triton X-100); immunoprecipitated with αFlag or control αAbd-B, Protein G Dynabeads, washed with RIPA; Western blot with αBtl and αFlag

binding [1]: binds
binding [2]: binds
B1: FGFR-Breathless, GFP-tagged (FGFR-btl-GFP) (receptor, UniProt Q09147 20-1052)
chain: DLGCDYGHHRCYIDVTVENSPRQRHLLSDMDITLQCVRPMAKWFYEDKFQLRATLLRLERAQSGNSGNYGCLDSQNRWYNISLVVGHKEPVGNDIASFVKLEDAPALPESDLFFQPLNESRSLKLLQPLPKTVQRTAGGLFQLNCSPMDPDAKGVNISWLHNDTQILGGRGRIKLKRWSLTVGQLQPEDAGSYHCELCVEQDCQRSNPTQLEVISRKHTVPMLKPGYPRNTSIALGDNVSIECLLEDSALEPKITWLHKGNADNIDDLLQRLREQSQLPVDVTRLITRMDEPQVLRLGNVLMEDGGWYICIAENQVGRTVAASYVDLYSPSDTTTVRTTTTTTVASPIPTASTGEDNDDDVENPAAEASGGVGPPVFRKELKRLQHSLSGNTVNLACPVYGKANITWTKDKKPLNRELGVYVQKNWTLRFVEATSEDSGLYNCKVCNAWGCIQFDFSVQINDRTRSAPIIVVPQNQTVKVNGSLVMKCTVYSDLHPTVSWKRVVLKNASLDGLKSVEIQNLNFTVTNDSVVLTLRNVTFDQEGWYTCLASSGLGRSNSSVYLRVVSPLPPLEIYALLHAHPLGFTLAAITIVALFLLGSAFITFMLRRLRREKLLKLRIETVHQWTKKVIIYRPGGEEGSGCSSGDLQMPVIRIEKQRTTVSTTGTGGTDPAQGFNEYEFPLDSNWEIPRQQLSLGSILGEGAFGRVVMAEAEGLPRSPQLAETIVAVKMVKEEHTDTDMASLVREMEVMKMIGKHINIINLLGCCSQGGPLWVIVEYAPHGNLKDFLKQNRPGAPQRRSDSDGYLDDKPLISTQHLGEKELTKFAFQIARGMEYLASRRCIHRDLAARNVLVSDGYVMKIADFGLARDIQDTEYYRKNTNGRLPIKWMAPESLQEKKYDSQSDVWSYGVLLWEIMTYGDQPYPHILSAEELYSYLITGQRMEKPAKCSLNIYVVMRQCWHFESCARPTFAELVESFDGILQQASSNPNDAYLDLSMPMLETPPSSGDEDDGSDTETFRETSPLRYQYTYKFN
